Source: patent US20120157395A1, “ANTI-INFLAMMATORY AGENT FOR ORAL APPLICATION, AND ANTI-INFLAMMATORY PEPTIDE FOR ORAL APPLICATION” (priority 2009, published 2012)
Not every detail of the peptide structures is certain; ends, links or a residue may be inferred. Residues, ends and D or L forms follow the SMILES beside them.

System: IL-8 secretion induced by TNF-α in Caco-2 cells
Assay: Inhibition of an inflammatory cytokine by cell experiments using synthetic peptides (IL-8 ELISA)
Format: cell-based

Q: Which results are given for `CC(C)C[C@H](NC(=O)[C@@H](N)Cc1ccccc1)C(=O)N[C@H](C(=O)O)C(C)C` [FLV, Phe-Leu-Val] (H-Phe-Leu-Val-OH; N-terminus and C-terminus assumed)?
A: IL-8 concentration (3 mM peptide 2 hours, then TNF-α 4 hours, supernatant ELISA, mean of three, TNF-α + Caco-2 alone 359.7/359.9, only Caco-2 65.4/51.5): 155.29 pg/mL; secretion of IL-8 induced by TNF-α (in words) (3 mM synthesized tripeptide): inhibit secretion
